Laboratory results published in article PMC7708047, “VEZF1–guanine quadruplex DNA interaction regulates alternative polyadenylation and detyrosinase activity of VASH1”.
These are yes or no findings as the source states them, for the method shown. Binding seen in cells or lysates may run through a third protein. Some entries that bind do so weakly or less than the wild type.

Chains of the proteins cited; added tags and fusions are not shown. Lines headed by an entry give the natural chain unless they say otherwise; changes in a name come on top. A line that says so, or that is headed by a name, gives the form on record, which may keep a tag or linker.
UniProt Q7L8A9: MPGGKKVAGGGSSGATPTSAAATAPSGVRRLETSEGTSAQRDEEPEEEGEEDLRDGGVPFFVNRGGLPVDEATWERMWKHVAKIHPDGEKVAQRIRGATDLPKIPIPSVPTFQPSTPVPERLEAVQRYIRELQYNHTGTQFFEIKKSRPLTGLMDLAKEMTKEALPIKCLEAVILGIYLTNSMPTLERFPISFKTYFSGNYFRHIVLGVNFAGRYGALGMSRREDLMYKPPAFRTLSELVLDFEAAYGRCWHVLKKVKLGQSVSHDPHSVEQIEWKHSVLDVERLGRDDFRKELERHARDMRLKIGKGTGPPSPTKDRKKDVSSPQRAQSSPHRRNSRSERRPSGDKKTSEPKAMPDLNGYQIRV
Vasohibin 1, short isoform (VASH1B) (Q7L8A9-2, form named): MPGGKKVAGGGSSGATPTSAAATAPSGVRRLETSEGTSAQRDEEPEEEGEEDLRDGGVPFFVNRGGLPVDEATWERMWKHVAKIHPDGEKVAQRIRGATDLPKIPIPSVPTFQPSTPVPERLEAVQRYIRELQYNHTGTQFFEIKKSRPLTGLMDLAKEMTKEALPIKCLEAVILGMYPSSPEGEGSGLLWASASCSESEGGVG

Molecular target: T1, Small vasohibin-binding protein (SVBP) (UniProt Q8N300)
T1 sequence: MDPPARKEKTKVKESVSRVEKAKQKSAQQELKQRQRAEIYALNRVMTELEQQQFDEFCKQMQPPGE
Assay: co-IP; reciprocal immunoprecipitation followed by immunoblot analysis (called reciprocal pull-down in the text); cells, tags and buffers not described in the methods shown

binding | Substance
binds | Vasohibin 1, long isoform (VASH1A) (from UniProt Q7L8A9 1-365)
no binding | Vasohibin 1, short isoform (VASH1B) (from UniProt Q7L8A9-2 1-204)
